Taken from: PubChem BioAssay AID1159584 (Peter MacCallum Cancer Centre, 2016)

Test: 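Genes that CDH1-null MCF10A cells selectively depend on to survive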 (primary screen)
System: human MCF10A breast epithelial cells, parental and CDH1-null
Reagents: siRNA against human genes
Detection: 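ATP luminescence (CellTiter-Glo) viability per line relative to mean mock wells over all plates, and the ratio of CDH1-null to parental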
Reading the numbers: CDH1-null / parental viability ratio: higher = CDH1-null cells survive relatively better than parental; CDH1-null viability vs mock: higher = more viable CDH1-null cells; parental viability vs mock: higher = more viable parental cells
This is an unselected part of about 18,000 deposited reagents. No sequences are given here. Not stated in the record: the amount of reagent, the time to read-out.

no.	gene knocked down	CDH1-null / parental viability ratio	CDH1-null viability vs mock (fraction of mock)	parental viability vs mock (fraction of mock)
1	CDCP1	1.17	1.11	0.95
2	COG3	0.96	1.03	1.07
3	CSTF3	1.09	0.6	0.55
4	TIPE2	1	0.94	0.94
5	CLN6	1.14	1	0.88
6	OR14K1	0.81	0.62	0.77
7	CADM2	0.76	0.5	0.66
8	VSNL1	1.05	1.09	1.04
9	VMP1	1	0.66	0.66
10	C10orf95	0.7	0.62	0.88
11	RAB5A	0.75	0.55	0.73
12	OVOL2	1.03	0.6	0.58
13	KRIT1	0.92	0.83	0.9
14	ATP5ME	0.81	0.61	0.75
15	THAP7	1.18	0.92	0.78
16	MRPS18C	0.77	0.3	0.39
17	ARL15	0.95	0.78	0.82
18	BTRC	1.01	0.84	0.83
19	FZD10	0.86	0.8	0.93
20	LANCL3	1.11	1.02	0.92
21	RCAN2	1	0.42	0.42
22	ATP10B	1.15	1.08	0.94
23	AZU1	1.78	0.57	0.32
24	SNX17	1.13	0.85	0.75
25	TAS2R14	1.05	1.03	0.98
26	LILRB3	0.88	0.57	0.65
27	CTAGE15	0.81	0.7	0.86
28	HMGCS1	1.03	1.04	1.01
29	M1AP	1.09	0.83	0.76
30	MFSD12	1.27	0.38	0.3
31	MEGF8	1.02	0.86	0.84
32	VTA1	0.99	0.76	0.77
33	INPP4B	1.13	0.76	0.67
34	MMUT	0.96	0.77	0.8
35	EMILIN1	0.71	0.34	0.48
36	NXT1	0.49	0.4	0.81
37	TIRAP	0.98	0.58	0.59

Entries listed so far whose gene name begins with L or l (2):
gene knocked down	CDH1-null / parental viability ratio	CDH1-null viability vs mock (fraction of mock)	parental viability vs mock (fraction of mock)
LANCL3	1.11	1.02	0.92
LILRB3	0.88	0.57	0.65

Next results:
no.	gene knocked down	CDH1-null / parental viability ratio	CDH1-null viability vs mock (fraction of mock)	parental viability vs mock (fraction of mock)
38	HRH4	0.87	0.8	0.92
39	TSKS	0.81	0.7	0.86
40	IRX6	1.06	0.89	0.84
41	RELT	1.13	0.86	0.76
42	FABP9	1.13	0.34	0.3
43	XRCC3	0.92	0.88	0.96
44	VARS2	1.08	1.05	0.97
45	CXCL1	0.84	0.62	0.74
46	WIPF2	0.91	0.58	0.64
47	FBXL17	0.91	0.64	0.7
48	RPS27L	1.1	0.91	0.83
49	ZNF232	1.02	0.86	0.84
50	PDE12	1.09	0.82	0.75
51	NRF1	1.25	0.7	0.56
52	XKR4	0.74	0.54	0.73
53	NF2	0.97	0.94	0.97
54	ARNT2	1.19	1.02	0.86
55	EDN1	0.99	0.72	0.73
56	SNX12	0.75	0.5	0.67
57	CXCL11	0.98	0.84	0.86
58	HYAL3	1.29	1.19	0.92
59	STARD10	1.47	1.19	0.81
60	SETDB2	0.9	0.95	1.05
61	LAMC1	0.87	0.67	0.77
62	PADI4	0.94	0.9	0.96
63	PJA1	1.06	1.07	1.01
64	CORO2B	1.03	0.78	0.76
65	PAFAH1B3	0.99	0.88	0.89
66	PROX1	1.14	1.14	1
67	POLR1D	1.42	0.95	0.67
68	SLC5A8	1.24	1.09	0.88
69	PLK4	0.91	0.6	0.66
70	GFPT1	1.03	0.93	0.9
71	NOX1	1.14	1.03	0.9
72	CXCL12	1.28	0.74	0.58
73	PHF20L1	0.93	0.98	1.05
74	PDZRN3	0.99	0.93	0.94
75	KAZALD1	0.77	0.6	0.78
76	FLCN	1.39	0.82	0.59
77	CLTB	0.84	0.36	0.43
78	EOLA1	1	0.88	0.88
79	CRY2	0.9	0.9	1
80	B3GNT5	0.84	0.78	0.93
81	PLVAP	1.47	0.47	0.32
82	CDK7	0.69	0.53	0.77
83	IFNAR1	1.09	1.01	0.93
84	KHDRBS2	1.27	0.76	0.6
85	SLC6A3	1.05	1.05	1
86	IVL	1.36	0.57	0.42
87	PCDHGB2	1.33	0.93	0.7
